# Results are given in words; binding and its absence hold for the method and conditions named. In cells and extracts the contact can be indirect. These calls come from enrichment with a bait or labelling near it, and not all partners need be listed.
# Biological target: TEF5-3xHA (Chlamydomonas reinhardtii)
# Assay: affinity purification with mass spectrometry
binder,measurement,value
"PsaD (protein, UniProt Q39615 36-196) EAEAAPAAAKKAAEKPAWTVPTLNPDTPSPIFGGSTGGLLRKAQTEEFYVITWEAKKEQIFEMPTGGAAIMRQGPNLLKFGKKEQCLALTTQLRNKFKLTPCFYRVFPDGKVQYLHPADGVYPEKVNAGRVGANQNMRRIGQNVNPIKVKFSGRMMSPAEI",binding,binds

# From doi:10.1101/2024.06.24.600430
